Data on one substance can be found in patent US20210347821A1.

By UniProt entry, the sequences of proteins in these tests, tags left out.
UniProt Q9EP80: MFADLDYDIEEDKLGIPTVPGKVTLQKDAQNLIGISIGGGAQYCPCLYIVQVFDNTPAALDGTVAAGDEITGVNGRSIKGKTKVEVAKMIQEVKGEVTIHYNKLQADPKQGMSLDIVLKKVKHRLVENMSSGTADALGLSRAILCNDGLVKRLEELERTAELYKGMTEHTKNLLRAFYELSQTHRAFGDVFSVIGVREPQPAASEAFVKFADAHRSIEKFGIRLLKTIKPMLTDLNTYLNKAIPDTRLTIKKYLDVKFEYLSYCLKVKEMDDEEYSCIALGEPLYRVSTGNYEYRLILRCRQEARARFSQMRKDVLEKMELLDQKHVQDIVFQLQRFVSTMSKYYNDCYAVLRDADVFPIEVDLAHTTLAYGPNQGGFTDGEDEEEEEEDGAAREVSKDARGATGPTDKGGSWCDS

The target in this test is Protein Interacting with C Kinase-1 (PICK1), purified recombinant (UniProt Q9EP80). Kind of test: analytical size exclusion chromatography.

No constants are given. Whether binding was seen depends on the method and setting. Some results given as binding are weak or reduced against the parent protein; the word gives no strength.

Consider “Protein Interacting with C Kinase-1 (PICK1), purified recombinant (from UniProt Q9EP80 1-416)”, for which the binding result is “binds”.
